Assay results from the supplement of paper PMC11732987, “Enantioselective OTUD7B fragment discovery through chemoproteomics screening and high-throughput optimisation” (Communications Chemistry, 2025).
Some of the results follow. The data scatter; read single values as rough.

Protein sequences, listed by entry. Tags and fused reporters are not part of them. Lines headed by an entry give the natural chain unless they say otherwise; changes in a name come on top. Residues count along the entry.
UniProt P52732: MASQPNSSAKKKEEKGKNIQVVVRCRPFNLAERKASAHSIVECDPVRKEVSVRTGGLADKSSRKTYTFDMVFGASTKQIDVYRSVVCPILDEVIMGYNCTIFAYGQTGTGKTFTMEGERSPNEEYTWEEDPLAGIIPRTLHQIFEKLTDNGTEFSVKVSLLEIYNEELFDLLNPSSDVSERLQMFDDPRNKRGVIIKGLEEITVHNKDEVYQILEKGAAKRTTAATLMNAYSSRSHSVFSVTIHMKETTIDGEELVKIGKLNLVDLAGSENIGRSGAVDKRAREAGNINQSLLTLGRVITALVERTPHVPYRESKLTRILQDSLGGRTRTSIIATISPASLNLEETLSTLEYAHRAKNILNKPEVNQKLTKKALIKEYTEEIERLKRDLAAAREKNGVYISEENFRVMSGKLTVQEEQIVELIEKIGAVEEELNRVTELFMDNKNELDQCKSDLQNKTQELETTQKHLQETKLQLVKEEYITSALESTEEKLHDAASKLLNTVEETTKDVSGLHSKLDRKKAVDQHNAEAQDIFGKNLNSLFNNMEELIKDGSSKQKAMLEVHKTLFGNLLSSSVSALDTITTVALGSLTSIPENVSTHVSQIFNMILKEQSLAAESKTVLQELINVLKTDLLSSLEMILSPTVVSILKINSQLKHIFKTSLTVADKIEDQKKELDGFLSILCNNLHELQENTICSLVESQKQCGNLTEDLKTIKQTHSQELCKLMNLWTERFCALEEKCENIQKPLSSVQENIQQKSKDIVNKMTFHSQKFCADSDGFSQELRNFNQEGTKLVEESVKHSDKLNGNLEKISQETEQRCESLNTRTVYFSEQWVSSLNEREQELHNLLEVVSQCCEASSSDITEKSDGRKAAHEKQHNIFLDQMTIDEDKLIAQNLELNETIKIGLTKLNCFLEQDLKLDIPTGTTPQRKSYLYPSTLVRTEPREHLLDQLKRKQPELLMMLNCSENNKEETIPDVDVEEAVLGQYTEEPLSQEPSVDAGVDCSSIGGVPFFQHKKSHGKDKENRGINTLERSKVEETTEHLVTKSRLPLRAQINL
UniProt Q9BW62, 78-108: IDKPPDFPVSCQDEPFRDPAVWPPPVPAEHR
UniProt Q9H9V9, 86-107: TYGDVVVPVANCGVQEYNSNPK
UniProt O95235: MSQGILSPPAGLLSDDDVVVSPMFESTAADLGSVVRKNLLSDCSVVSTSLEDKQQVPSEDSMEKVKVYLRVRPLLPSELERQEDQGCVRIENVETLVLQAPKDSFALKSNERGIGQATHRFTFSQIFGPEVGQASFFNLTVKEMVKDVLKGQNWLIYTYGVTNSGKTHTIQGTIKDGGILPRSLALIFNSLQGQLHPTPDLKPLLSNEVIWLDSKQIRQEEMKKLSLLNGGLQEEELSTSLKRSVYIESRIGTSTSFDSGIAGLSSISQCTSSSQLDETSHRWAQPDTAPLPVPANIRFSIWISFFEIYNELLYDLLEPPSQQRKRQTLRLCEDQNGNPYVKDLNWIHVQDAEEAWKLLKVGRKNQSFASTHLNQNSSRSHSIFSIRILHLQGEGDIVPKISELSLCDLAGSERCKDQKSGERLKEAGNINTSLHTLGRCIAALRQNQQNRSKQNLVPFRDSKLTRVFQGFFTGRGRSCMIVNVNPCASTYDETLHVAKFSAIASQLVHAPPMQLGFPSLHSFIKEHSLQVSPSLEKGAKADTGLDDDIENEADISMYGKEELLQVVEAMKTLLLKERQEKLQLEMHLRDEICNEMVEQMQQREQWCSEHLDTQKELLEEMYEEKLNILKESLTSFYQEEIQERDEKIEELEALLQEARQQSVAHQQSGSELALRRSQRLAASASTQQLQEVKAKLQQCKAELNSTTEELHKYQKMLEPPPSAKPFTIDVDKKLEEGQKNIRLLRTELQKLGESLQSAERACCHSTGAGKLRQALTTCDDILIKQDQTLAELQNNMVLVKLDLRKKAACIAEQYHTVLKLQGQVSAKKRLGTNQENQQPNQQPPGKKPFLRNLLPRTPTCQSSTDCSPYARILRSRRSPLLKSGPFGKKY
UniProt Q9Y4C1: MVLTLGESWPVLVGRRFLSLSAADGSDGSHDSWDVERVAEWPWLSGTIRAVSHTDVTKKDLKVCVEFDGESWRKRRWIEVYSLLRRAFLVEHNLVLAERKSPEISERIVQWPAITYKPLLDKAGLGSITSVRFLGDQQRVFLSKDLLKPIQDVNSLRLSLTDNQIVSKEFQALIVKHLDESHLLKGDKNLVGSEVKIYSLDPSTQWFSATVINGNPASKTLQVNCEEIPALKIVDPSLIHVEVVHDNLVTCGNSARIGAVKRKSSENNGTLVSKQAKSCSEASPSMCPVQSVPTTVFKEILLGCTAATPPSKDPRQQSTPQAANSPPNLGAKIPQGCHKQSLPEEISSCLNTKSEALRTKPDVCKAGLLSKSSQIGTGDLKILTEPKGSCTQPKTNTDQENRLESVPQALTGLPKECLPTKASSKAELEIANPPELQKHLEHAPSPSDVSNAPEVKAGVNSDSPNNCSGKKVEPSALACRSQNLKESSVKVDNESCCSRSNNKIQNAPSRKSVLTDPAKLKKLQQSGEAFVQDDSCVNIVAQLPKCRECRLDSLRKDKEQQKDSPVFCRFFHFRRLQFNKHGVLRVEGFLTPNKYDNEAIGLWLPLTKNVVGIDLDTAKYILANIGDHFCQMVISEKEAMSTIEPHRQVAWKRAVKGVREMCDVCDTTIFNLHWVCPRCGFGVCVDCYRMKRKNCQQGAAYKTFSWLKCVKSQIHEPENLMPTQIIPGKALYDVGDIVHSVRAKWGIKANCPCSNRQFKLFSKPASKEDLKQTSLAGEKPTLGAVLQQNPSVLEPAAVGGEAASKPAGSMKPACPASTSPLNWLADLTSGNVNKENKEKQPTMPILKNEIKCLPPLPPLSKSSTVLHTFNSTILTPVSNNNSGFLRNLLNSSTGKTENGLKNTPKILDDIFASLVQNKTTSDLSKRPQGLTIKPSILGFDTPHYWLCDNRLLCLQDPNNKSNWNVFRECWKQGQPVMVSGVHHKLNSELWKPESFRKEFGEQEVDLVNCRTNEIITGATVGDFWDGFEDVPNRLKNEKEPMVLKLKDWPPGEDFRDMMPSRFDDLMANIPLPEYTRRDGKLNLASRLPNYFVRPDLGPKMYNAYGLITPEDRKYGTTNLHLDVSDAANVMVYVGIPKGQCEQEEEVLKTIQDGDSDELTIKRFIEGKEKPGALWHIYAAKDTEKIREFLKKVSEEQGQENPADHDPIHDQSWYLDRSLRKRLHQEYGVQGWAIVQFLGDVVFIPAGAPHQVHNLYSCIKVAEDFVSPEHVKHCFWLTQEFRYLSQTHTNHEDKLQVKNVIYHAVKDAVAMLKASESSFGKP
UniProt P14923, 87-115: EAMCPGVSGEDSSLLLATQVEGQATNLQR
UniProt Q9H1H9: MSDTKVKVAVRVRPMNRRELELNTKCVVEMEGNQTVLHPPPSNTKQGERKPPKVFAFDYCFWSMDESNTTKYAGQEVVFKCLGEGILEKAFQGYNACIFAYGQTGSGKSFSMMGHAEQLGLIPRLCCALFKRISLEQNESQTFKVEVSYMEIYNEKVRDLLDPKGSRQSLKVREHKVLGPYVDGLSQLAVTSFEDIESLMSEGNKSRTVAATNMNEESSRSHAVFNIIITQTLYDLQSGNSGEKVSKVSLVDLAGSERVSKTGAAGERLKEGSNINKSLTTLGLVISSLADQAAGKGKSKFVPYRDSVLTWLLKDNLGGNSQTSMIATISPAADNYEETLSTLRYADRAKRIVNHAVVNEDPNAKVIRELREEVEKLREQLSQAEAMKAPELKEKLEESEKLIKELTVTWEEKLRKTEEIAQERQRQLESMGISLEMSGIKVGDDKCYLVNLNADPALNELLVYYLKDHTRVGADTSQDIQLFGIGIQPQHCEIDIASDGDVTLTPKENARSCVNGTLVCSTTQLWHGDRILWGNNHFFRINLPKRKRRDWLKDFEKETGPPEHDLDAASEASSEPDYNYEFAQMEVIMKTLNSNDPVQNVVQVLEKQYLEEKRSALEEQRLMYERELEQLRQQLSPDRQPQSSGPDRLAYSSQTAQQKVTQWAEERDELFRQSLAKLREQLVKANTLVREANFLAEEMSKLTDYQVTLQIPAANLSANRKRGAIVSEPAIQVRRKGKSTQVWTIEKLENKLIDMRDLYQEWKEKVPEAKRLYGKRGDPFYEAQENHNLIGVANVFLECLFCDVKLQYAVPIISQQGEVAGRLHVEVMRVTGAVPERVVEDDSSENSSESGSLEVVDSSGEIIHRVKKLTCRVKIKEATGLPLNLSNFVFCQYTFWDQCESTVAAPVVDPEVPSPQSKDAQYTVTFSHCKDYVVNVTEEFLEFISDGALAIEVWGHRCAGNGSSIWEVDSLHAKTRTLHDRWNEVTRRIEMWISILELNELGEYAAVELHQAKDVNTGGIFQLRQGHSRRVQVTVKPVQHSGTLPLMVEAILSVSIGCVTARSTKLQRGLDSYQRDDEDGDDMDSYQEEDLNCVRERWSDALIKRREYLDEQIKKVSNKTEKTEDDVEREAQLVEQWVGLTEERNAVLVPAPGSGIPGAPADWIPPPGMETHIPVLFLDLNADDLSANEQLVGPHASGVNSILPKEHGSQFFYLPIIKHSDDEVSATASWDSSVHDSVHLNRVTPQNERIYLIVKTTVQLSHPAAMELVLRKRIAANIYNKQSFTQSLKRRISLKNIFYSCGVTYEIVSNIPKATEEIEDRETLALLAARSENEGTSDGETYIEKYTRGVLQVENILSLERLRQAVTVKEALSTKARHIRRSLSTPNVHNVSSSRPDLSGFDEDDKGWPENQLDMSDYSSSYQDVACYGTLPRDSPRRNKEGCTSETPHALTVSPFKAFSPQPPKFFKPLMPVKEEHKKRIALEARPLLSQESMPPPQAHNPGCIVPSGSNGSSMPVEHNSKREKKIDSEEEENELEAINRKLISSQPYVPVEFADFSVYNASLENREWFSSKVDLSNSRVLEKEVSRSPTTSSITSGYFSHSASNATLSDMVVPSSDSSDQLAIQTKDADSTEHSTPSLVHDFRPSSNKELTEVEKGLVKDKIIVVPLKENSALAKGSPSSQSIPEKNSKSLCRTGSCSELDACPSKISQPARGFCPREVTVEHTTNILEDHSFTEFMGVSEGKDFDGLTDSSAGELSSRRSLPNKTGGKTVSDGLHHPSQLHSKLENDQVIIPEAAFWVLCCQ
UniProt Q02241: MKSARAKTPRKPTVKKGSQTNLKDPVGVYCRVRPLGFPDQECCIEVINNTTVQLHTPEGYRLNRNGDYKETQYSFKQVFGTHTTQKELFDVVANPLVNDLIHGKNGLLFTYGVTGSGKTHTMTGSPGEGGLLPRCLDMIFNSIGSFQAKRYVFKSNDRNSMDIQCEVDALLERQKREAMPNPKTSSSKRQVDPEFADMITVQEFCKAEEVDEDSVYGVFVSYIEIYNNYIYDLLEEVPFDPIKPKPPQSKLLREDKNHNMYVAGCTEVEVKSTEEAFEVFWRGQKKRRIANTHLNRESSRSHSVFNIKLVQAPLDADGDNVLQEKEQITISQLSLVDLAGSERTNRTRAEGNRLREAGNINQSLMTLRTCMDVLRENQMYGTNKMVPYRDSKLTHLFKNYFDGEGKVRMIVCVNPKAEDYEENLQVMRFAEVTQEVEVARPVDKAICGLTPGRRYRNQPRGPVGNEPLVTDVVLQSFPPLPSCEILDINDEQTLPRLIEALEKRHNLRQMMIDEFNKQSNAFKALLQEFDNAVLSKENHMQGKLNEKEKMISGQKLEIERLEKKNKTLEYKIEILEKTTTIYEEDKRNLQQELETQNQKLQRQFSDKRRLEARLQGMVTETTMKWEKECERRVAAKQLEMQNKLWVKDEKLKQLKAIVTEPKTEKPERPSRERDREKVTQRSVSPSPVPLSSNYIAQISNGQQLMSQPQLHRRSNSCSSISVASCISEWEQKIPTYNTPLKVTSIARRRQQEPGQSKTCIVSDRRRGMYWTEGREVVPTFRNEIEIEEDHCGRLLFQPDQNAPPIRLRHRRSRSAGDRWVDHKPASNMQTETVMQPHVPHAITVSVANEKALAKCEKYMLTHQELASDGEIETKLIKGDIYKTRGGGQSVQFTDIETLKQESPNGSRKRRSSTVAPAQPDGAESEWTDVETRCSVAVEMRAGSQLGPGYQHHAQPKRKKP
UniProt Q06136: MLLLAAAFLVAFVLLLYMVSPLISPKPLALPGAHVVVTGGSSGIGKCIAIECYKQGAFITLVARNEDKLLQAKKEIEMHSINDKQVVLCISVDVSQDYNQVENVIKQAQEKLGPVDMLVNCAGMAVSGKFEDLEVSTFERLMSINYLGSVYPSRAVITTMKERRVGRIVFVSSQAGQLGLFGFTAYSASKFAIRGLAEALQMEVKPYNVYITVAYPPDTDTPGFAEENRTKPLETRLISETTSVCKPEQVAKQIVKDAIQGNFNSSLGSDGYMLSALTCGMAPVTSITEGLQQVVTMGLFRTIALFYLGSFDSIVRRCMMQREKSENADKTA

compound: ClCC(=O)N[C@@H]1CCCc2ccccc12; assay: log2 mean competition ratio of IA-DTB cysteine labelling (DMSO/compound) (log2 ratio); higher = stronger cysteine engagement by compound; conditions: 50 µM; treatment time: 4 h; cell line lysate: HEK293T
Description: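 IA-DTB competitive cysteine chemoproteomics in HEK293T RIPA lysate. Lysates were treated with compound 29 or 30 at 50 or 200 µM for 4 h, then IA-DTB (500 µM, 1 h), trypsin-digested, NeutrAvidin-enriched and analysed by diaPASEF. Competition ratio = intensity DMSO / intensity compound (n=4 treated, n=64 DMSO); binding: mean log2 CR ≥ 1 and p ≤ 0.05 plus QC filters. Target is the cysteine site.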

| Target | log2 mean competition ratio |
| --- | --- |
| KIF11 C704 (UniProt P52732) | -0.215 |
| KATNAL1 C88 (UniProt Q9BW62) | -0.104 |
| JMJD4 C143 (UniProt Q9H9V9) | -0.281 |
| KDELR1 C29 (UniProt P24390) | 0.0502 |
| KIF11 C450 (UniProt P52732) | -0.302 |
| KIF20A C407 (UniProt O95235) | -0.0714 |
| KIF3A C12 (UniProt Q9Y496) | -0.189 |
| KIF20A C778 (UniProt O95235) | -0.393 |
| KDM3A C1140 (UniProt Q9Y4C1) | 0.0113 |
| JUP C90 (UniProt P14923) | -0.0411 |
| ITPR2 C420 (UniProt Q14571) | -0.0339 |
| KIF13A C958 (UniProt Q9H1H9) | 0.432 |
| KIF23 C447 (UniProt Q02241) | -0.0356 |
| KIF1A C1645 | -0.14 |
| JAK1 C827 (UniProt P23458) | 0.303 |
| KIF13B C26 (UniProt Q9NQT8) | -0.0518 |
| KDM4A C533 (UniProt O75164) | -0.136 |

| Target | log2 mean competition ratio |
| --- | --- |
| KIF23 C933 (UniProt Q02241) | -0.0462 |
| KIAA1958 C73 | -0.119 |
| KDSR C245 (UniProt Q06136) | -0.0528 |
| KCTD20 C369 (UniProt Q7Z5Y7) | 0.00694 |
| KIF21A C1144 | -0.0525 |
| ITSN2 C1389 (UniProt Q9NZM3) | 0.0292 |
| KCNK1 C69 (UniProt O00180) | 0.54 |
| KATNAL1 C7 (UniProt Q9BW62) | 0.165 |
| KCTD3 C599 (UniProt Q9Y597) | 0.0774 |
| KCTD5 C25 (UniProt Q9NXV2) | 0.2 |
| KDM3A C695 (UniProt Q9Y4C1) | 0.118 |
| JCAD C904 | 0.0515 |
| KDM3A C390 (UniProt Q9Y4C1) | -0.297 |
| JKAMP C181 | -0.238 |
| KIF18A C9 | -0.0989 |
| ITM2B C38 (UniProt Q9Y287) | -0.44 |
| KBTBD11 C99 (UniProt O94819) | -0.256 |

same assay, conditions: 200 µM; treatment time: 4 h; cell line lysate: HEK293T

| Target | log2 mean competition ratio |
| --- | --- |
| KIF11 C704 (UniProt P52732) | 0.0801 |
| KATNAL1 C88 (UniProt Q9BW62) | 0.365 |
| JMJD4 C143 (UniProt Q9H9V9) | 0.043 |
| KDELR1 C29 (UniProt P24390) | -0.104 |
| KIF11 C450 (UniProt P52732) | 0.134 |
| KIAA1522 C321 (UniProt Q9P206) | -0.358 |
| KIF20A C407 (UniProt O95235) | -0.0159 |
| KIF3A C12 (UniProt Q9Y496) | 0.0185 |
| KIF20A C778 (UniProt O95235) | 0.41 |
| KDM3A C1140 (UniProt Q9Y4C1) | 0.103 |
| JUP C90 (UniProt P14923) | -0.137 |
| ITPR2 C420 (UniProt Q14571) | -0.0785 |
| KIF18B C513 (UniProt Q86Y91) | 0.219 |
| KIF13A C958 (UniProt Q9H1H9) | 0.0824 |
| KIF23 C447 (UniProt Q02241) | -0.224 |
| KIF1A C1645 | 0.0561 |
| JAK1 C827 (UniProt P23458) | 0.587 |
| KIF13B C26 (UniProt Q9NQT8) | -0.115 |
| KDM4A C533 (UniProt O75164) | -0.00681 |

| Target | log2 mean competition ratio |
| --- | --- |
| KIF4A C1171 (UniProt O95239) | 0.277 |
| KIF23 C933 (UniProt Q02241) | -0.0513 |
| KIAA1958 C73 | 0.393 |
| KDSR C245 (UniProt Q06136) | -0.0792 |
| KCTD20 C369 (UniProt Q7Z5Y7) | 0.293 |
| KIF21A C1144 | -0.2 |
| ITSN2 C1389 (UniProt Q9NZM3) | -0.565 |
| KCNK1 C69 (UniProt O00180) | 0.183 |
| KATNAL1 C7 (UniProt Q9BW62) | 0.0316 |
| KCTD3 C599 (UniProt Q9Y597) | 0.0362 |
| KIF14 C47 (UniProt Q15058) | -0.522 |
| KCTD5 C25 (UniProt Q9NXV2) | 0.0692 |
| KDM3A C695 (UniProt Q9Y4C1) | 0.0198 |
| JCAD C904 | 0.0865 |
| KDM3A C390 (UniProt Q9Y4C1) | 0.281 |
| JKAMP C181 | 0.207 |
| KIF18A C9 | -0.0564 |
| ITM2B C38 (UniProt Q9Y287) | -0.435 |
| KBTBD11 C99 (UniProt O94819) | 0.0618 |
